The chains behind the UniProt entries cited, without tags or fusion partners. Residues count along the entry.
UniProt P52948, residues 1-480: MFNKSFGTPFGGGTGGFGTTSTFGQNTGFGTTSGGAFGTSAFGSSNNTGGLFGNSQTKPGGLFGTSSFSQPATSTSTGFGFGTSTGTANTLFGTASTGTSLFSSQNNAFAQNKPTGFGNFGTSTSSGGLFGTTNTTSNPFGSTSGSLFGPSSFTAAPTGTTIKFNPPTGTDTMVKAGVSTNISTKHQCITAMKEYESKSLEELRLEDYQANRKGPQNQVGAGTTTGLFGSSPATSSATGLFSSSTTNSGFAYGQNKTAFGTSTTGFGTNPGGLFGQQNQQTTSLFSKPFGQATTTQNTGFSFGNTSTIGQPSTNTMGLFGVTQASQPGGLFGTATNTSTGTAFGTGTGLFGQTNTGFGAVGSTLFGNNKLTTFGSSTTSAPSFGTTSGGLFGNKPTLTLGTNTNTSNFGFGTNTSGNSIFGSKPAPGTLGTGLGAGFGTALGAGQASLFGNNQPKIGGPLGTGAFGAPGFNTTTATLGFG
UniProt P49790, residues 901-1475: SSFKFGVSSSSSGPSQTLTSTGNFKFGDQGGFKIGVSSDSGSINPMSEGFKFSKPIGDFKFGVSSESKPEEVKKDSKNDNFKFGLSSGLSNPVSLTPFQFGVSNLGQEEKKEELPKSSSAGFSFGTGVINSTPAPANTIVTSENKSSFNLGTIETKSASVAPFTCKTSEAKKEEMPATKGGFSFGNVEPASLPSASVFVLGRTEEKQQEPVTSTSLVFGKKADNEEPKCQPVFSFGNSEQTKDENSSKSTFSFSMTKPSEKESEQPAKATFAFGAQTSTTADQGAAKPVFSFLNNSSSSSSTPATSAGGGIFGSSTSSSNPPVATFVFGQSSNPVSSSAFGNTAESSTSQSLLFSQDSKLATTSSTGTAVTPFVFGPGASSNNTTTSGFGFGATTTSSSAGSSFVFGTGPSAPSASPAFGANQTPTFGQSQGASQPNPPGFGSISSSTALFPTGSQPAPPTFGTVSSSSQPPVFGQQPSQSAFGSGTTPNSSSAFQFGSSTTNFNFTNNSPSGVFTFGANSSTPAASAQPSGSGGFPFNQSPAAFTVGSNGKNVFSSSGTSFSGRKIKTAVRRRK
UniProt P35658, residues 1400-2090: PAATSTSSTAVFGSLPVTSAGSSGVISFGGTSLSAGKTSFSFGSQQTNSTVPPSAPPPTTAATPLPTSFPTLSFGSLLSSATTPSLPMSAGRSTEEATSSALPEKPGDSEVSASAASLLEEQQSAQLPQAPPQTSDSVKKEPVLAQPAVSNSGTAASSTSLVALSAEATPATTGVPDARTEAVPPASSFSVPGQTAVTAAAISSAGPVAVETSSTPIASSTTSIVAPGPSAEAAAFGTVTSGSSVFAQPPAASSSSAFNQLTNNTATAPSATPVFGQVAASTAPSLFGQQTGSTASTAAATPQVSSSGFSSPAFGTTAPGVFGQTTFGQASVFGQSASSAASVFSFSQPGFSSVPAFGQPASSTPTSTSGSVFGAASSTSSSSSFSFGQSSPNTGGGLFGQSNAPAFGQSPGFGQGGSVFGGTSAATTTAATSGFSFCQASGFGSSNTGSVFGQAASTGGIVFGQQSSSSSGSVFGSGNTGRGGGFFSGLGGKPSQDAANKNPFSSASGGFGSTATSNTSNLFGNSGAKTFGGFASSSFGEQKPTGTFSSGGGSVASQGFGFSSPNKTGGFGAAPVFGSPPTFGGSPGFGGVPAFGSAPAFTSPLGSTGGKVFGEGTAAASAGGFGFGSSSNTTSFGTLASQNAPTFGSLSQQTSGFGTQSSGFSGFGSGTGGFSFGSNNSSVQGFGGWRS

According to paper PMC11254768:

Molecular target: Ig27WT (titin's 27th immunoglobulin (Ig) domain), 6x His at the C-terminus (UniProt Q8WZ42)
Assay: far-Western, overlay or dot blot; purified I27WT-6His and (GS)4-I27WT-6His spotted in triplicate on nitrocellulose, blocked with 3% BSA in PBS-T 16 h at 4 °C, incubated overnight at 4 °C with 750 OD units of bacterial lysate with overexpressed StrepII-tagged Nup FG-rich domain; detected with Strep-Tag II antibody HRP conjugate; intensity normalised by a control membrane (no Nup, anti-His-Tag antibody); five experiments; only the target purified

Substance	binding
StrepII-tagged FG-rich domain of Nup98 (residues 1-480) (from UniProt P52948 1-480) (domain or fragment)	no binding (tested: 750 OD units of bacterial lysates)
StrepII-tagged FG-rich domain of Nup153 (residues 901-1475) (from UniProt P49790 901-1475) (domain or fragment)	binds
StrepII-tagged FG-rich domain of Nup214 (residues 1400-2090) (from UniProt P35658 1400-2090) (domain or fragment)	no binding (tested: 750 OD units of bacterial lysates)

These are yes or no findings as the source states them, for the method shown. Binding calls can cover weak binding; strength is not graded here.
